Measurements from publication PMC8964797.
These are yes or no findings as the source states them, for the method shown. A result given as binding can be weak or reduced; the word gives no strength. For part of these data: Tags and fused reporters may be left off the sequences shown. For part of these data: Binding seen in cells or lysates may run through a third protein.

Protein sequences, listed by entry. Tags and fused reporters are not part of them. Lines headed by an entry give the natural chain unless they say otherwise; changes in a name come on top.
UniProt Q9LM15: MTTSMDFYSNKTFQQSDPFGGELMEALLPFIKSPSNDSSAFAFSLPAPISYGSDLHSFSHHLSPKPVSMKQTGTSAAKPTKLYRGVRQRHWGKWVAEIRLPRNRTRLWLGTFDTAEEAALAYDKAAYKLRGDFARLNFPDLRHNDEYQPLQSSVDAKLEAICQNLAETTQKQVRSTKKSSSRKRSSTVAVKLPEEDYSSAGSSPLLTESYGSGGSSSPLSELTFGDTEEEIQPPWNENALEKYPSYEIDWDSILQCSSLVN
UniProt P14713: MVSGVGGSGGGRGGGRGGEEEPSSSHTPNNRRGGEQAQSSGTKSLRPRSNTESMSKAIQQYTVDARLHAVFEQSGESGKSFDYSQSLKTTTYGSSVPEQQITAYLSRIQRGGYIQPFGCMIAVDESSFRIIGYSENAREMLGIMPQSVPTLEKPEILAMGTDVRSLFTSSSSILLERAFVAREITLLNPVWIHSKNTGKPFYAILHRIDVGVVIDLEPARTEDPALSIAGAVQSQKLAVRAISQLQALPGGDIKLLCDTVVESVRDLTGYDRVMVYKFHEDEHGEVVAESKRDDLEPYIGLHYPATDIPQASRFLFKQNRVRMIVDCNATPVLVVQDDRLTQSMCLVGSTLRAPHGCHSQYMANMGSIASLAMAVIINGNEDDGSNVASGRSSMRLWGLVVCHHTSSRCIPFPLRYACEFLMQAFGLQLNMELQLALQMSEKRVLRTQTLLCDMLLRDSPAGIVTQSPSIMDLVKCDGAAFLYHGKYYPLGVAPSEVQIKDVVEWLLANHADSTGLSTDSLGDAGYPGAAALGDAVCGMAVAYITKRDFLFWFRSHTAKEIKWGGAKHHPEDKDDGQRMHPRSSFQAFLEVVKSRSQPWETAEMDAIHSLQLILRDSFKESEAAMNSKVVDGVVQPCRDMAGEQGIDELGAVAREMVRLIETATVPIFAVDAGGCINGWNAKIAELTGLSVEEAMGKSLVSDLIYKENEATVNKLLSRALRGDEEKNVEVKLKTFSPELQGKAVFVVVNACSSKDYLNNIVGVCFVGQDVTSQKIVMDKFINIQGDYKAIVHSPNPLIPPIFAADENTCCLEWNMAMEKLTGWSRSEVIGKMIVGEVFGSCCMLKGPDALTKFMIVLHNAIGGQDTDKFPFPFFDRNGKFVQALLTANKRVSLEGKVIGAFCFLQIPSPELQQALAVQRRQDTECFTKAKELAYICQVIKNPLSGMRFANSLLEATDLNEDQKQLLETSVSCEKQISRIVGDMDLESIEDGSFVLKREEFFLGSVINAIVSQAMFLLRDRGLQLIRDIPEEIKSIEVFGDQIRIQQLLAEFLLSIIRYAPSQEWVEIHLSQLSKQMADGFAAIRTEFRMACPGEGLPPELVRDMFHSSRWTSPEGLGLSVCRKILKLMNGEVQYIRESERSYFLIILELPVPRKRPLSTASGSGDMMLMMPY
UniProt Q9SKW5: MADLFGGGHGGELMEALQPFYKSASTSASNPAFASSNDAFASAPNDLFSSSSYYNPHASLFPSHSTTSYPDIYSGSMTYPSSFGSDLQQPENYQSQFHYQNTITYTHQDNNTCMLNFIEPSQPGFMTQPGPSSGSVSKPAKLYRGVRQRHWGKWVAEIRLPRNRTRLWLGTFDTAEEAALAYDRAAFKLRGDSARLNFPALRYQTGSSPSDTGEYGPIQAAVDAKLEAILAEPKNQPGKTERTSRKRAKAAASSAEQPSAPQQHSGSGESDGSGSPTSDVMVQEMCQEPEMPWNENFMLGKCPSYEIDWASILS

T1: Full-length phyA fused to LexA (Arabidopsis thaliana) (UniProt P14712)
T1 sequence (chain, chromophore phycocyanobilin (PCB) supplied in the medium): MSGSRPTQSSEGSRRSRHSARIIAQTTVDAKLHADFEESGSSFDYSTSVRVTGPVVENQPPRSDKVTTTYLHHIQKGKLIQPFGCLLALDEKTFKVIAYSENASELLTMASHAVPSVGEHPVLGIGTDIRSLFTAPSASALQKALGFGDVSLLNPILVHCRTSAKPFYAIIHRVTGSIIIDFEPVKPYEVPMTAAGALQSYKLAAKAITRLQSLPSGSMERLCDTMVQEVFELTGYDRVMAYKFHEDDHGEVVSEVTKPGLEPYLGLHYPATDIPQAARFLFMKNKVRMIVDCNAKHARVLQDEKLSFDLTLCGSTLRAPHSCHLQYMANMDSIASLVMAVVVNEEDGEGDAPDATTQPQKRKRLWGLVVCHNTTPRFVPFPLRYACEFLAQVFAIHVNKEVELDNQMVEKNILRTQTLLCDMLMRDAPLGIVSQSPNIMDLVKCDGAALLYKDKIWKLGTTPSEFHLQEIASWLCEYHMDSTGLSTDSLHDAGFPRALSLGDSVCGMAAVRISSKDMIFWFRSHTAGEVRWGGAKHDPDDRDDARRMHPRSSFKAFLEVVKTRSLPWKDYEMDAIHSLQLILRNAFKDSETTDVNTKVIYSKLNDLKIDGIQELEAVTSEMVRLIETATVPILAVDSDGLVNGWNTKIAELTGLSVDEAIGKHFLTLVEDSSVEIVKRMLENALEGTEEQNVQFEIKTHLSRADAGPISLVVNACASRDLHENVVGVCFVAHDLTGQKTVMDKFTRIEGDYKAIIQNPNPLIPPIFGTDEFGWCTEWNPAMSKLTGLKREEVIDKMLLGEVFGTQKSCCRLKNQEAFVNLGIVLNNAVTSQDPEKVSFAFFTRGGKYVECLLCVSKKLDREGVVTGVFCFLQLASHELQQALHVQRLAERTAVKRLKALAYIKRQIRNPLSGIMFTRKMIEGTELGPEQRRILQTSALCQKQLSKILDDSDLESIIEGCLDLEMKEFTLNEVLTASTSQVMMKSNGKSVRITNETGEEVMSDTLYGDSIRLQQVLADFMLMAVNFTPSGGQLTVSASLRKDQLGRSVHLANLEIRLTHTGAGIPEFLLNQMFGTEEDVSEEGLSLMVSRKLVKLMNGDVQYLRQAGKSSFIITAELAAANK


How the values were obtained:
[1] = molecular target: HA-YFP-ERF58 (Arabidopsis thaliana) (UniProt Q9LM15); assay: co-IP; extracts of 3-day-old dark-grown Col-0 pERF58:HA-YFP-ERF58 seedlings kept in the dark or treated with 5 min R, 2 h FR, or 2 h FR + 5 min R; α-GFP MicroBeads; blots with α-phyA, α-phyB, α-HA; Col-0 as negative control
[2] = molecular target: T1, Full-length phyA fused to LexA (Arabidopsis thaliana); assay: two-hybrid; phyA or phyBN fused to LexA, ERFs fused to GAL4 AD, S. cerevisiae NMY51; 20 μM PCB; ONPG β-Gal assay after 5 min R or FR light, and growth on CSM -L-T-H in the dark or R light (5 mM 3-amino-1,2,4-triazole for phyB)

binding [1] | binding [2] | Molecule
binds |  | Endogenous phyB (from UniProt P14713 1-1172)
 | binds | ERF55 (yeast two-hybrid fusion) (from UniProt Q9SKW5)
binds |  | Endogenous phyA (protein, UniProt P14712 1-1122) MSGSRPTQSSEGSRRSRHSARIIAQTTVDAKLHADFEESGSSFDYSTSVRVTGPVVENQPPRSDKVTTTYLHHIQKGKLIQPFGCLLALDEKTFKVIAYSENASELLTMASHAVPSVGEHPVLGIGTDIRSLFTAPSASALQKALGFGDVSLLNPILVHCRTSAKPFYAIIHRVTGSIIIDFEPVKPYEVPMTAAGALQSYKLAAKAITRLQSLPSGSMERLCDTMVQEVFELTGYDRVMAYKFHEDDHGEVVSEVTKPGLEPYLGLHYPATDIPQAARFLFMKNKVRMIVDCNAKHARVLQDEKLSFDLTLCGSTLRAPHSCHLQYMANMDSIASLVMAVVVNEEDGEGDAPDATTQPQKRKRLWGLVVCHNTTPRFVPFPLRYACEFLAQVFAIHVNKEVELDNQMVEKNILRTQTLLCDMLMRDAPLGIVSQSPNIMDLVKCDGAALLYKDKIWKLGTTPSEFHLQEIASWLCEYHMDSTGLSTDSLHDAGFPRALSLGDSVCGMAAVRISSKDMIFWFRSHTAGEVRWGGAKHDPDDRDDARRMHPRSSFKAFLEVVKTRSLPWKDYEMDAIHSLQLILRNAFKDSETTDVNTKVIYSKLNDLKIDGIQELEAVTSEMVRLIETATVPILAVDSDGLVNGWNTKIAELTGLSVDEAIGKHFLTLVEDSSVEIVKRMLENALEGTEEQNVQFEIKTHLSRADAGPISLVVNACASRDLHENVVGVCFVAHDLTGQKTVMDKFTRIEGDYKAIIQNPNPLIPPIFGTDEFGWCTEWNPAMSKLTGLKREEVIDKMLLGEVFGTQKSCCRLKNQEAFVNLGIVLNNAVTSQDPEKVSFAFFTRGGKYVECLLCVSKKLDREGVVTGVFCFLQLASHELQQALHVQRLAERTAVKRLKALAYIKRQIRNPLSGIMFTRKMIEGTELGPEQRRILQTSALCQKQLSKILDDSDLESIIEGCLDLEMKEFTLNEVLTASTSQVMMKSNGKSVRITNETGEEVMSDTLYGDSIRLQQVLADFMLMAVNFTPSGGQLTVSASLRKDQLGRSVHLANLEIRLTHTGAGIPEFLLNQMFGTEEDVSEEGLSLMVSRKLVKLMNGDVQYLRQAGKSSFIITAELAAANK
